Experimental data taken from PubChem BioAssay AID248 (DTP/NCI, 2004).
The list does not hold the whole screen: it is rich in T/C values a quarter to a half above the control, in often repeated tests (any T/C) and in doses without a T/C. Further doses and runs are listed elsewhere. T/C: endpoint of the treated group in % of that of the vehicle group. Some doses have a count of surviving animals in place of a T/C: the source holds a T/C of zero for them, seemingly a mark for toxic or unscored doses. Some survivor counts are full or nearly so, which does not show that the dose was tolerated: the source hardly ever lists a survival T/C far under the control, and the zero likely stands for such cases as well. Counts of survivors are from the toxicity check (mostly the fifth day) where no day follows; animals may have died later. Schedules are NCI's codes, taken here to give the interval after Q, in days (D) or hours (H), and the number of doses after X. Some schedules carry Z or #; the key to these is not given. For survival time, the PubChem record calls one and a half times the control and up active, and a quarter to a half above the control has no call in these data; cut-offs in other NCI protocols can differ. Some T/C values carry the count of animals alive at the toxicity check (mostly the fifth day); without a count, all were alive then.

System: L1210 leukemia ip in BDF1 mice, survival T/C
Experiment: NCI In Vivo Anticancer Drug Screen. Data for tumor model L1210 Leukemia (intraperitoneal) in B6D2F1 (BDF1) mice
Conditions: T/C endpoint: mean survival time, higher T/C = longer survival
[1] = dose: 400.0 mg/kg/injection, schedule: Q01DX001 (ip), vehicle: saline with Tween-80
[2] = dose: 6.25 mg/kg/injection, schedule: Q01DX009 (ip), vehicle: saline with Tween-80
[3] = dose: 200.0 mg/kg/injection, schedule: Q01DX009 (ip), vehicle: saline
[4] = dose: 400.0 mg/kg/injection, schedule: Q04DX003 (ip), vehicle: saline with Tween-80
[5] = dose: 100.0 mg/kg/injection, schedule: Q01DX001 (ip), vehicle: saline
[6] = dose: 200.0 mg/kg/injection, schedule: Q01DX001 (ip), vehicle: saline
[7] = dose: 25.0 mg/kg/injection, schedule: Q01DX009 (ip), vehicle: saline with Tween-80
[8] = dose: 100.0 mg/kg/injection, schedule: Q04DX002 (ip), vehicle: saline with Tween-80
[9] = dose: 200.0 mg/kg/injection, schedule: Q04DX002 (ip), vehicle: saline with Tween-80
[10] = dose: 400.0 mg/kg/injection, schedule: Q04DX002 (ip), vehicle: saline with Tween-80
[11] = dose: 400.0 mg/kg/injection, schedule: Q01DX001 (ip), vehicle: saline
[12] = dose: 200.0 mg/kg/injection, schedule: Q01DX009 (ip), vehicle: saline with Tween-80
[13] = dose: 400.0 mg/kg/injection, schedule: Q04DX003 (ip), vehicle: Klucel (hydroxypropylcellulose) (HPC)
[14] = dose: 100.0 mg/kg/injection, schedule: Q01DX009 (ip), vehicle: saline with Tween-80

`CCCCCCN(CCCCCC)CP(=S)(CN(CCCCCC)CCCCCC)CN(CCCCCC)CCCCCC` was tested, and the survivor count [1] was 0 of 6.
For `C=CCSc1ccnc(N)n1`, the survivor count (dose: 200.0 mg/kg/injection, schedule: Q01DX001 (ip), vehicle: Klucel (hydroxypropylcellulose) (HPC)) was 3 of 6.
With `ClC(Cl)=[C](Cl)[Hg][C](Cl)=C(Cl)Cl` the survivor count (dose: 3.13 mg/kg/injection, schedule: Q01DX009 (ip), vehicle: saline with Tween-80) was 5 of 6 and the survivor count [2] was 4 of 6.
`NC(N)=N/N=C/c1ccccn1` was tested, and the survivor count (dose: 240.0 mg/kg/injection, schedule: Q01DX Z (ip), vehicle: saline) was 0 of 6 and the survivor count (dose: 480.0 mg/kg/injection, schedule: Q01DX Z (ip), vehicle: saline) was 0 of 6.
For `N#CCCOCC(COCCC#N)OCCC#N`, the T/C [3] was 131 % of control.
For `CCCC/C(=N\NC(N)=S)c1ccc(F)cc1`, the survivor count (dose: 15.0 mg/kg/injection, schedule: Q01DX Z (ip), vehicle: methylcellulose (MC)) was 0 of 6, the survivor count (dose: 30.0 mg/kg/injection, schedule: Q01DX Z (ip), vehicle: methylcellulose (MC)) was 5 of 6 and the survivor count (dose: 60.0 mg/kg/injection, schedule: Q01DX Z (ip), vehicle: methylcellulose (MC)) was 5 of 6. The survivor count (dose: 60.0 mg/kg/injection, schedule: Q01DX Z (oral), vehicle: methylcellulose (MC)) was 2 of 6, the survivor count (dose: 120.0 mg/kg/injection, schedule: Q01DX Z (ip), vehicle: methylcellulose (MC)) was 0 of 6 and the survivor count (dose: 120.0 mg/kg/injection, schedule: Q01DX Z (oral), vehicle: methylcellulose (MC)) was 1 of 6. For the same compound, the survivor count (dose: 240.0 mg/kg/injection, schedule: Q01DX Z (oral), vehicle: methylcellulose (MC)) was 0 of 6.
For `Cc1c(O)cccc1F`, the survivor count (dose: 200.0 mg/kg/injection, schedule: Q04DX002 (ip), vehicle: Klucel (hydroxypropylcellulose) (HPC)) was 1 of 3 and the survivor count (dose: 400.0 mg/kg/injection, schedule: Q04DX002 (ip), vehicle: Klucel (hydroxypropylcellulose) (HPC)) was 0 of 3.
For `CN(C)CCSCC(OC(=O)c1ccccc1)c1ccccc1` (configuration not stated), the survivor count (dose: 200.0 mg/kg/injection, schedule: Q04DX003 (ip), vehicle: saline with Tween-80) was 4 of 6 and the survivor count [4] was 1 of 6.
`O=C1C(=O)c2ccccc2C(O)=C1CN1CCC1` was tested, and the survivor count [1] was 0 of 3.
For `CN(N=O)C(=O)Nc1ccc(NC(=O)N(C)N=O)cc1`, the T/C (dose: 20.0 mg/kg/injection, schedule: Q01DX Z (ip), vehicle: carboxymethylcellulose (CMC)) was 138 % of control, the T/C (dose: 90.0 mg/kg/injection, schedule: Q01DX001 (ip), vehicle: carboxymethylcellulose (CMC)) was 127 % of control and the T/C (dose: 180.0 mg/kg/injection, schedule: Q01DX001 (ip), vehicle: carboxymethylcellulose (CMC)) was 134 % of control. For the same compound, the survivor count (dose: 720.0 mg/kg/injection, schedule: Q01DX001 (ip), vehicle: carboxymethylcellulose (CMC)) was 1 of 10.
For `C[N+](C)(C)c1ccc(N=Nc2ccccn2)cc1`, the survivor count [5] was 1 of 6 and the survivor count [6] was 0 of 6.
In the case of `CCOc1c(Br)cc(Br)cc1/C=N/NS(=O)(=O)c1ccc(C)cc1`, the survivor count (dose: 200.0 mg/kg/injection, schedule: Q01DX009 (ip), vehicle: Klucel (hydroxypropylcellulose) (HPC)) is reported as 5 of 6.
With `CC(C)(C)OOC(=O)Nc1ccc(Cl)cc1` the survivor count (dose: 100.0 mg/kg/injection, schedule: Q01DX001 (ip), vehicle: saline with Tween-80) was 3 of 3.
`CC1(C)N=C(N)N=C(N)N1c1ccc(OCC(=O)N2CCOCC2)cc1` was tested, and the survivor count [3] was 1 of 6.
`C[CH2][Sn]1([CH2]C)[O]OC(c2ccccc2)[O]1` (configuration not stated) was tested, and the T/C [2] was 125 % of control [9 of 10 alive], the survivor count [7] was 5 of 10 and the survivor count (dose: 25.0 mg/kg/injection, schedule: Q04DX002 (ip), vehicle: saline with Tween-80) was 0 of 3. The survivor count [8] was 0 of 3, the survivor count [9] was 0 of 3 and the survivor count [10] was 0 of 3.
With `Cc1ncc(CO)c(C2NOCc3ncsc32)c1O` (configuration not stated) the survivor count (dose: 25.0 mg/kg/injection, schedule: Q01DX009 (ip), vehicle: saline) was 2 of 6, the survivor count (dose: 35.0 mg/kg/injection, schedule: Q04DX003 (ip), vehicle: saline) was 3 of 6 and the survivor count (dose: 50.0 mg/kg/injection, schedule: Q01DX001 (ip), vehicle: saline) was 0 of 6. For the same compound, the survivor count (dose: 55.0 mg/kg/injection, schedule: Q04DX003 (ip), vehicle: saline) was 0 of 6, the survivor count (dose: 80.0 mg/kg/injection, schedule: Q04DX003 (ip), vehicle: saline) was 0 of 6 and the survivor count [5] was 0 of 6. For the same compound, the survivor count [6] was 0 of 6 and the survivor count [11] was 0 of 6.
In the case of `O=C(Nc1ccccc1)OC/C=C\c1ccccc1`, the survivor count (dose: 100.0 mg/kg/injection, schedule: Q04DX002 (ip), vehicle: Klucel (hydroxypropylcellulose) (HPC)) is reported as 3 of 3.
For `COC(=O)/C(=C/c1ccccc1)CBr`, the survivor count [12] was 3 of 3.
With `O/N=C(/CBr)c1ccccc1` the survivor count (dose: 100.0 mg/kg/injection, schedule: Q04DX002 (ip), vehicle: gum acacia) was 0 of 3 and the survivor count (dose: 200.0 mg/kg/injection, schedule: Q04DX002 (ip), vehicle: gum acacia) was 0 of 3.
With `CCOC(=O)C(CCC#N)(CCC#N)C(C)=O` the survivor count [13] was 6 of 6.
`CCC(C)(CC=C(C)C)c1ccncc1` (configuration not stated) was tested, and the survivor count [6] was 0 of 6 and the survivor count [11] was 0 of 6.
`COc1ccc(SC(=O)Nc2cc([N+](=O)[O-])ccc2Cl)cc1` was tested, and the survivor count [14] was 6 of 6, the survivor count [12] was 6 of 6 and the survivor count (dose: 400.0 mg/kg/injection, schedule: Q01DX009 (ip), vehicle: saline with Tween-80) was 6 of 6.
`OCP(CO)CO.[Cl][Hg][Cl]` was tested, and the survivor count [5] was 0 of 6 and the survivor count (dose: 300.0 mg/kg/injection, schedule: Q01DX001 (ip), vehicle: saline) was 0 of 6.
`COc1ccc(S(=O)(=O)N/N=C/C(=O)O)cc1` was tested, and the T/C [7] was 128 % of control, the T/C (dose: 50.0 mg/kg/injection, schedule: Q01DX009 (ip), vehicle: saline with Tween-80) was 134 % of control and the T/C [14] was 139 % of control. The survivor count [12] was 6 of 6.
For `COc1ccc(NC(=O)Nc2ccccc2Cl)c(OC)c1`, the survivor count [9] was 3 of 3.
With `N/C(=N\O)c1ccc(Cl)cc1` the survivor count [4] was 2 of 6.
With `O=C(O)CCC(NC(=O)OCc1ccccc1)C(=O)OCc1ccccc1` (configuration not stated) the survivor count [13] was 0 of 6.
`C[N+](C)(C)CCCBr` was tested, and the survivor count (dose: 5.0 mg/kg/injection, schedule: Q01DX001 (ip), vehicle: saline) was 1 of 4, the survivor count (dose: 40.0 mg/kg/injection, schedule: Q01DX001 (ip), vehicle: saline) was 0 of 4 and the survivor count (dose: 80.0 mg/kg/injection, schedule: Q01DX001 (ip), vehicle: saline) was 0 of 4. The survivor count [5] was 0 of 4, the survivor count [6] was 0 of 4 and the survivor count [11] was 0 of 4.
For `CNCC(C)CN1CCCCCc2ccccc21` (configuration not stated), the survivor count (dose: 100.0 mg/kg/injection, schedule: Q01DX009 (ip), vehicle: saline) was 0 of 6, the survivor count [3] was 0 of 6 and the survivor count (dose: 400.0 mg/kg/injection, schedule: Q01DX009 (ip), vehicle: saline) was 0 of 6.
For `O=C(Nc1ccc(C2=NCCN2)cc1)c1cc(Cl)c(C(=O)Nc2ccc(C3=NCCN3)cc2)cc1Cl`, the T/C (dose: 30.0 mg/kg/injection, schedule: Q01DX Z (ip), vehicle: carboxymethylcellulose (CMC)) was 138 % of control.
With `NC(N)=N/N=C/c1ccc(O)cc1` the survivor count (dose: 120.0 mg/kg/injection, schedule: Q01DX Z (ip), vehicle: saline) was 3 of 6.
With `Nc1ncnc2nccnc12` the survivor count (dose: 225.0 mg/kg/injection, schedule: Q01DX Z (ip), vehicle: saline) was 0 of 6.
In the case of `CC(C)C(=O)OC1(C(C)c2ccccc2)C(=O)NC(=O)NC1=O` (configuration not stated), the survivor count [8] is reported as 0 of 3, the survivor count [9] is reported as 0 of 3 and the survivor count [10] is reported as 0 of 3.
In the case of `CC12CC3CC(C)(C1)CC(SCCN)(C3)C2`, the survivor count (dose: 400.0 mg/kg/injection, schedule: Q04DX002 (ip), vehicle: saline) is reported as 2 of 3.
